The results in this text go back to the supplement of paper PMC6289059.

Values joined by “and” are separate entries in the source; they are usually repeats but may differ in a detail not shown here. Equal entries are not always repeated. The list shows a part of the results. Repeats are few or missing, and single values can be far off.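 The assay uses human stem cell-derived hepatocyte-like cells whose DGUOK gene was disrupted by CRISPR, modeling liver mtDNA depletion syndrome. ATP signals were scored within each plate, and any drug with a score of at least 3 was called a primary hit.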 Positions of bridges follow the written chain, without caps; N, C: chain ends. Non-standard residues stand in square brackets, D forms with d. Residues, ends and D or L forms follow the SMILES beside them. *: point of attachment. Ileψ(thiazoline)Cys = CC[C@H](C)[C@H](N)C1=N[C@H](C(=O)*)CS1; dOrn = NCCC[C@@H](N)C(=O)O

For the test, the system named is DGUOK Δ14/Δ5 iPSC-derived hepatocyte-like cells (SV20). Description: ATP level (CellTiter-Glo luminescence) Z score relative to plate distribution, under 2-DG glycolysis block; higher = more cellular ATP (rescue of mitochondrial ATP production). As to conditions: 5 µM; treatment time: day 15 to day 20 of differentiation (5 days); 2-deoxy-D-glucose: 20 mM for 24 h before assay. Background: Cellular ATP, detected with luciferase, serves as a proxy for viable cell number.
Turning to `CC1(C)CC[C@]2(C)CC[C@]3(C)C(=CC[C@@H]4[C@@]5(C)CC[C@H](O)C(C)(C)[C@@H]5CC[C@]43C)[C@@H]2C1` [beta-AMYRIN], the ATP level is inactive: 1.15.

As for `Cc1cc2c(cc1S(N)(=O)=O)S(=O)(=O)CCC2`, the ATP level was inactive: -0.679.

In the case of `CN1C(C)(C)CCCC1(C)C`, the ATP level was inactive: 0.808.

For the compound `Cc1cc(O)c(C=O)c2c1C(=O)Oc1c(C)c(O)c3c(c1O2)C(O)OC3=O` (stereo unspecified), the ATP level was inactive: -1.33.

`Cc1onc(-c2c(Cl)cccc2Cl)c1C(=O)N[C@@H]1C(=O)N2[C@@H]1SC(C)(C)[C@@H]2C(=O)O`: the ATP level was inactive: 1.68.

`O=c1ccc2ccc(O)cc2o1`: the ATP level was inactive: -1.19.

Consider `CN(C)/N=N/c1[nH]cnc1C(N)=O`, for which the ATP level is inactive: 0.442.

Regarding `C[N+](C)(C)CCCCCC[N+](C)(C)C`, the ATP level was inactive: -1.29.

Regarding `CC[N+](C)(C)Cc1ccccc1Br`, the ATP level was inactive: 1.52.

Take `CC1CC(OC(=O)C(O)c2ccccc2)CC(C)(C)C1` (stereo unspecified): the ATP level is inactive: 0.944.

Turning to `Cc1oncc1C(=O)Nc1ccc(C(F)(F)F)cc1`, the ATP level was inactive: -2.27.

Turning to `CC(=O)Oc1ccc2c(c1)CC[C@@H]1[C@@H]2CC[C@]2(C)[C@@H](O)CC[C@@H]12`, the ATP level is inactive: -0.39.

`O=C(O)c1cccnc1Nc1cccc(C(F)(F)F)c1`: the ATP level is inactive: 1.28.

Regarding `O=C(O)c1cccc(O)c1O`, the ATP level is inactive: -1.4.

For `CC(CCc1ccccc1)NCC(O)c1ccc(O)c(C(N)=O)c1` (stereo unspecified), the ATP level was active: 4.79.

Consider `CCOC(=O)[C@H](CCc1ccccc1)N[C@@H](C)C(=O)N1Cc2ccccc2C[C@H]1C(=O)O`, for which the ATP level is active: 11.2.

For `CN(C)CCCN1c2ccccc2Sc2ccccc21`, the ATP level was inactive: -7.89.

Consider `Cc1cc(C(C)(C)C)c(O)c(C)c1CC1=NCCN1`, for which the ATP level was inactive: -2.47.

Regarding `C=CC(C1=CC(=O)C=CC1=O)c1ccccc1` (stereo unspecified), the ATP level was inactive: -0.302.

For `COc1ccc2c(=O)ccoc2c1`, the ATP level is inactive: 0.183.

Consider `COc1c2ccoc2c(OC)c2oc(=O)ccc12`, for which the ATP level was inactive: 0.807.

As for `COc1ccc([C@@H]2CC(=O)c3c(O)cc(O[C@@H]4O[C@H](CO[C@@H]5O[C@@H](C)[C@H](O)[C@@H](O)[C@H]5O)[C@@H](O)[C@H](O)[C@H]4O)cc3O2)cc1O`, the ATP level was inactive: -1.68.

On to `CC(C)(C(=O)O)c1ccc(C(O)CCCN2CCC(C(O)(c3ccccc3)c3ccccc3)CC2)cc1` (stereo unspecified), for which the ATP level was inactive: 0.868.

As to `COc1ccc2c(c1)OC/C(=C\c1ccc(OC)c(O)c1)C2=O`, the ATP level was inactive: -1.65.

For the compound `C[N+]1(C)[C@@H]2CC[C@H]1C[C@@H](OC(=O)C(O)c1ccccc1)C2` (stereo partly specified), the ATP level was inactive: 1.47.

Consider `COC(=O)C1=C(C)NC(C)=C(C(=O)OCCN2CCN(C(c3ccccc3)c3ccccc3)CC2)C1c1cccc([N+](=O)[O-])c1` (stereo unspecified), for which the ATP level was inactive: 1.82.

Take `C=Cc1c(C)c2cc3[nH]c(cc4nc(cc5nc(cc1[nH]2)C(C)=C5CCC(=O)O)C(CCC(=O)O)=C4C)c(C)c3C=C`: the ATP level is inactive: -8.

Take `COC(=O)[C@H]1[C@H]2C[C@H]3c4[nH]c5ccccc5c4CCN3C[C@@H]2CC[C@@H]1O`: the ATP level is inactive: -2.12.

In the case of `CC(=O)Nc1ccccc1`, the ATP level was inactive: 0.346.

For the compound `O=C1OC2(c3ccccc31)c1cc(I)c(O)c(I)c1Oc1c2cc(I)c(O)c1I`, the ATP level is inactive: 1.26.

Turning to `CSc1ccc2c(c1)C(N1CCN(C)CC1)Cc1ccccc1S2` (stereo unspecified), the ATP level is inactive: -6.15.

Take `CC(C(=O)O)c1ccc2c(c1)Cc1cccnc1O2` (stereo unspecified): the ATP level is inactive: -1.37.

On to `C[C@H]1COc2c(C3(N)CC3)c(F)cc3c(=O)c(C(=O)O)cn1c23`, for which the ATP level is inactive: -2.02.

For the compound `COc1ccc(-c2cc(=O)c3c(O)c(OC)c(O[C@@H]4O[C@H](CO[C@@H]5O[C@@H](C)[C@H](O)[C@@H](O)[C@H]5O)[C@@H](O)[C@H](O)[C@H]4O)cc3o2)cc1`, the ATP level was inactive: 1.09.

As to `Cn1c(=O)[nH]c(=O)c2[nH]cnc21`, the ATP level was inactive: -6.62.

With `OC[C@H]1O[C@H](O[C@]2(CCl)O[C@H](CCl)[C@@H](O)[C@@H]2O)[C@H](O)[C@@H](O)[C@H]1Cl`, the ATP level was inactive: -0.28.

As to `O=C(O)[C@@H](O)[C@H](O)[C@H](O)[C@@H](O)C(=O)O`, the ATP level is inactive: 1.72.

Regarding `CN1CCC(=C2c3ccccc3CCc3cccnc32)CC1`, the ATP level was inactive: 1.24.

Turning to `COc1ccc2c(c1)c(CC(=O)O)c(C)n2C(=O)c1ccc(Cl)cc1`, the ATP level is inactive: 2.37.

On to `CC1(C)C=Cc2c(c3c(c4c(=O)c(-c5ccc(O)c(O)c5)coc24)OC(C)(C)CC3)O1`, for which the ATP level is inactive: 2.82.

For `CC(C)(C)NCC(O)COc1cccc2c1CCC(=O)N2` (stereo unspecified), the ATP level was inactive: 0.706.

With `CC(=O)NCCCS(=O)(=O)O`, the ATP level is inactive: 1.18.

Turning to `COc1ccc2c(c1OC)C(=O)O[C@@H]2[C@H]1c2c(cc3c(c2OC)OCO3)CCN1C`, the ATP level is inactive: 0.762.

For `O=C(O)c1cc(/N=N/c2ccc(O)c(C(=O)O)c2)ccc1O`, the ATP level is inactive: 1.07.

For `CCOC(=O)O[C@]1(C(=O)COC(=O)CC)CC[C@H]2[C@@H]3CCC4=CC(=O)C=C[C@]4(C)[C@H]3[C@@H](O)C[C@@]21C`, the ATP level is inactive: 1.58.

Consider `OC(CNCC(O)C1CCc2cc(F)ccc2O1)C1CCc2cc(F)ccc2O1` (stereo unspecified), for which the ATP level is inactive: -4.84.

In the case of `Cc1c[nH]c2ccccc12`, the ATP level is active: 3.49.

For `CC(=O)NS(=O)(=O)c1ccc(NC(=O)c2ccccc2C(=O)O)cc1`, the ATP level was inactive: -1.36.

As to `O=c1cc(-c2ccc(O)cc2)oc2ccc(O)cc12`, the ATP level was inactive: 0.911.

As for `CC[C@H](C)[C@H](N)C1=N[C@H](C(=O)N[C@@H](CC(C)C)C(=O)N[C@H](CCC(=O)O)C(=O)N[C@H](C(=O)N[C@H]2CCCCNC(=O)[C@H](CC(N)=O)NC(=O)[C@@H](CC(=O)O)NC(=O)[C@H](Cc3cnc[nH]3)NC(=O)[C@@H](Cc3ccccc3)NC(=O)[C@H]([C@@H](C)CC)NC(=O)[C@@H](CCCN)NC2=O)[C@@H](C)CC)CS1` ({Ileψ(thiazoline)Cys}-L[dE]IK[dOrn]I[dF]H[dD]N; lactam 4-C), the ATP level is inactive: 0.766.

For the compound `O=C(CCc1ccc(O)cc1)c1c(O)cc(O)cc1O`, the ATP level was inactive: 0.913.

For `CN1CCN(CCCN2c3ccccc3Sc3ccc(C(F)(F)F)cc32)CC1`, the ATP level is inactive: -3.36.

Regarding `CC(S)C(=O)NCC(=O)O` (stereo unspecified), the ATP level was inactive: 0.635.

For `Cn1c(=O)c2nc(C3CCCC3)[nH]c2n(C)c1=O`, the ATP level is inactive: -0.376.

Consider `COC(=O)C[C@H]1C(C)(C)C2(O)OC34CC2C(=O)[C@]1(C)C3CC[C@]1(C)C4=CC(=O)O[C@H]1c1ccoc1` (stereo partly drawn) [8beta-HYDROXYCARAPIN, 3,8-HEMIACETAL], for which the ATP level was inactive: -0.889.

As to `CNC[C@H](O)c1ccc(O)c(O)c1`, the ATP level is inactive: 1.03.

With `COc1cc(/C=C/C(N)=O)cc(OC)c1OC`, the ATP level is inactive: 0.361.

`O=C1c2ccc(O)c(O)c2C(=O)c2c(O)ccc(O)c21`: the ATP level was inactive: 1.38.

As to `CN(C(=O)C(Cl)Cl)c1ccc(OC(=O)c2ccco2)cc1`, the ATP level is inactive: 0.391.

With `Nc1ccn([C@H]2CC[C@@H](CO)O2)c(=O)n1`, the ATP level was inactive: -4.22.

Consider `Oc1cc(O)c2c(c1)O[C@H](c1cc(O)c(O)c(O)c1)[C@H](O)C2`, for which the ATP level was inactive: -3.92.

As to `COc1ccc(-c2cc(=O)c3cc(OC)ccc3o2)cc1`, the ATP level was inactive: -1.76.

In the case of `CC(=O)c1ccc2c(c1)N(CCCN(C)C)c1ccccc1S2`, the ATP level is inactive: -1.93.

Consider `CN(C)CCOC(C)(c1ccccc1)c1ccccn1` (stereo unspecified), for which the ATP level was inactive: -1.65.

As for `C=CCNC(N)=S`, the ATP level was inactive: 0.365.

`Oc1c(I)cc(Cl)c2cccnc12`: the ATP level was inactive: -4.71.

With `C=CC(C1=CC(=O)C(OC)=CC1=O)c1ccc(OC)cc1` (stereo unspecified), the ATP level is inactive: -2.28.

`CC(C)(C#N)c1cc(Cn2cncn2)cc(C(C)(C)C#N)c1`: the ATP level was inactive: -0.696.

For the compound `COc1cc(C)c2c(c1C=O)Oc1c(c(C)c(O)c3c1C(O)OC3=O)OC2=O` (stereo unspecified), the ATP level is inactive: 1.73.

As to `CC[C@]1(O)C[C@H]2CN(CCc3c([nH]c4ccccc34)[C@@](C(=O)OC)(c3cc4c(cc3OC)N(C=O)[C@H]3[C@@](O)(C(=O)OC)[C@H](OC(C)=O)[C@]5(CC)C=CCN6CC[C@]43[C@@H]65)C2)C1`, the ATP level is inactive: 1.3.

`NC[C@@H]1O[C@H](O[C@H]2[C@@H](O)[C@H](O[C@@H]3[C@@H](O)[C@H](N)C[C@H](N)[C@H]3O[C@H]3O[C@H](CO)[C@@H](O)[C@H](O)[C@H]3N)O[C@@H]2CO)[C@H](N)[C@@H](O)[C@@H]1O`: the ATP level was active: 3.08.

In the case of `COc1ccccc1OCC(O)CO` (stereo unspecified), the ATP level is inactive: 0.849.

With `Cc1cc(=O)[nH]c(=S)[nH]1`, the ATP level was inactive: 0.568 and inactive: 0.941.

As for `CC(=O)[C@H]1CC[C@H]2[C@@H]3C=CC4=CC(=O)CC[C@@]4(C)[C@@H]3CC[C@]12C`, the ATP level was inactive: -0.057.

In the case of `CN1[C@@H]2CC[C@H]1C[C@@H](OC(=O)c1c[nH]c3ccccc13)C2`, the ATP level was inactive: -10.5.

In the case of `O=C(CCCCCCCC(=O)NCCO)NCCO`, the ATP level is inactive: 0.585.

For `Cc1cccc(C)c1OCC(C)N` (stereo unspecified), the ATP level was inactive: -0.847.

Turning to `Oc1ccc(/C=C/c2cc(O)cc(O)c2)cc1`, the ATP level is inactive: -0.607.

On to `CC(=O)N1CCCC1C(=O)O` (stereo unspecified), for which the ATP level was inactive: -0.332.

As to `CCOC(=O)C1=C(COCCN)NC(C)=C(C(=O)OC)C1c1ccccc1Cl` (stereo unspecified), the ATP level was inactive: -2.48.

On to `Oc1c(Cl)cc(Cl)c(Cl)c1Cc1c(O)c(Cl)cc(Cl)c1Cl`, for which the ATP level is inactive: -12.3.

In the case of `CC(C(=O)O)c1ccc2c(c1)[nH]c1ccc(Cl)cc12` (stereo unspecified), the ATP level is inactive: 1.83.

In the case of `CO/N=C(\C(=O)N[C@@H]1C(=O)N2C(C(=O)O)=C(CSc3nnnn3C)CS[C@H]12)c1csc(N)n1`, the ATP level was inactive: 2.78.

Regarding `O=C(O)C1CCCNC1` (stereo unspecified), the ATP level is inactive: 0.384.

In the case of `Cc1cccc(C)c1NC(=O)C(C)N` (stereo unspecified), the ATP level is inactive: -0.818.

With `O=C1c2c(O)cccc2C([C@@H]2O[C@H](CO)[C@@H](O)[C@H](O)[C@H]2O)c2cc(CO)cc(O)c21` (stereo partly specified), the ATP level was inactive: -1.11.
